Reference: the supplement of paper PMC5949888
± gives the standard deviation of the averaged measurements. Most values lie at the floor of the assay. Slopes are relative: functional sequences can read slightly below zero.

What follows are substances tested on Saccharomyces cerevisiae PS128 hsf1 delta, HSF1(1-493) fusion (assay: growth estimate (transactivation domain function in HSF1 fusion, heat-shock survival) (a.u. (slope of normalised read count over time)); higher = stronger growth at 37°C, i.e. more transactivation activity). Conditions: library: random library.
Description: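 Random 60-nt DNA library encoding peptides of up to 20 aa, fused to the C-terminus of yeast HSF1 residues 1-493 (C-terminal TAD deleted) and expressed from the native HSF1 promoter on a CEN plasmid in hsf1-deleted S. cerevisiae PS128. Cells were selected at 37°C on -trp 5-FOA plates for 0, 2, 4, 6 and 8 days and amplicons were sequenced. Growth estimate is the slope of a robust linear fit of total-sum-normalised read counts (normalised to the first time point) over time, using at least 2 replicates. Sequences are classed functional (TAD activity) above a threshold of -0.13, set from stop-codon control sequences.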

Row | Substance | growth estimate
1 | DPTFRATCMGTLHVPPLGK | < -0.25
2 | RPYYSRIAVVHVRSGVRPGP | < -0.25
3 | INRPRRWY | < -0.25
4 | CELHSVFALYRSFSQFYEHA | < -0.25
5 | YDTLSRGLLPGHELNGLMRR | < -0.25
6 | ETNVSVAVVEKLVGSGGGRV | < -0.25
7 | GRLSLINPLGDGSSDRADWN | < -0.25
8 | YSVLSENCVSSLNANRLFSV | < -0.25
9 | YQGVEP | < -0.25
10 | GEVQHHFRDNLKVLN | < -0.25
11 | LGVNMIGHCYNGA | < -0.25
12 | SQESWGT | < -0.25
13 | DSPRHNALSKRNLRRHAKSG | < -0.25
14 | CVSLNDNASISHHNVYHCVE | < -0.25
15 | VGQRLVAERIVAEQALSLDS | < -0.25
16 | NRYQTSG | < -0.25
17 | VRGHHVGDRRKTYV | < -0.25
18 | VLMRLLGVRASMKRECHRNA | < -0.25
19 | DDDETCRDPRRATWMIDDID | -0.158
20 | RFS | -0.00225 ± 0.35
21 | ELQSVRESETR | < -0.25
22 | VNVVSDDTVLGDVQDGRNGH | < -0.25
23 | VPSDSGRM | < -0.25
24 | VMLFEWR | < -0.25

Some of the entries so far, with each value named:
VLMRLLGVRASMKRECHRNA
  growth estimate: < -0.25
DDDETCRDPRRATWMIDDID
  growth estimate: -0.158
RFS
  growth estimate: -0.00225 ± 0.35
ELQSVRESETR
  growth estimate: < -0.25

(cont.)

Row | Substance | growth estimate
25 | NTFYQIPLRSVARANVRAPG | < -0.25
26 | CRSQDSRGTCVSESVLRSRR | < -0.25
27 | GRRCGRVVTVLIKHLSFSVV | < -0.25
28 | DLGNSMDIARYTVSAGEEIG | < -0.25
29 | MSGCPQSLGLPYVSCILMVG | < -0.25
30 | GQSGTGGLE | < -0.25
31 | RGVLIYYSVPVEGA | < -0.25
32 | RDDHWKSLPGSSVHSDRDGA | < -0.25
33 | GIKGLRLEPAISKGPEASAD | < -0.25
34 | SIMQPHESFLAPWSTGD | < -0.25
35 | MATTARTILTDSPLEV | < -0.25
36 | LTEPDG | < -0.25
37 | SSVSFLGRTG | < -0.25
38 | FRLARPHLLMDCWGRKRIRF | < -0.25
39 | AGCKQSLSGQPLPAPTQGFH | < -0.25
40 | GMRYREPSHALDCPSCTRAT | < -0.25
41 | LTV | < -0.25
42 | GSRFPPGLPL | < -0.25
43 | FAEGRTFGRGFLT | < -0.25
44 | VEGSGLQEGGPKLIFSIRG | < -0.25
45 | GFSKVASLLRCSFRPLGAQP | < -0.25
46 | GEQTKITGLPNRK | -0.248
47 | RSIAGHIWTRRCSMLHSSPG | < -0.25
48 | VRQGFECSV | < -0.25

Row | Substance | growth estimate
49 | DSCGQKPRHGVHLGGIQPLL | < -0.25
50 | QLRFEHAPRPTSSRSGHLS | < -0.25
51 | RNGNPKGWPGGLEGLRTR | < -0.25
52 | ANLTAVAAFNSVPTEWLKLP | < -0.25
53 | YYSHTTGVFT | < -0.25
54 | THTQSGPRHEVRQIRQSRHA | < -0.25
55 | RESHSYL | < -0.25
56 | GDYFRPWLARSNNRPKKVFN | < -0.25
57 | QECAHSN | < -0.25
58 | QSVWIAR | < -0.25
59 | VLAATIG | < -0.25
60 | CEDIAKGRPREHEGPFYMRN | < -0.25
61 | SKIIPRYTK | -0.239
62 | WYEGKVPTELPT | < -0.25
63 | CSRVS | < -0.25
64 | YNVRWIT | < -0.25
65 | TRVICAGSSEMSNCFVVIVH | < -0.25
66 | PLSDGGAGTSSFVYSFGPTS | < -0.25
67 | NGLVRYVIRFQQVHNPHGAR | < -0.25
68 | LIPRPVT | < -0.25
69 | PHCVT | < -0.25
70 | LLYHARP | < -0.25
71 | TLRFNYVIFVNVSLCVTACH | < -0.25
72 | LVVNKLPLPRAEGRRYHDGR | < -0.25

In another format: results already given.
CEDIAKGRPREHEGPFYMRN
  growth estimate: < -0.25
SKIIPRYTK
  growth estimate: -0.239

A few values from the results shown:
QSVWIAR | growth estimate: < -0.25
CEDIAKGRPREHEGPFYMRN | growth estimate: < -0.25
DLGNSMDIARYTVSAGEEIG | growth estimate: < -0.25

Going on with the list.

Row | Substance | growth estimate
73 | FGNGRPEYS | < -0.25
74 | ACSVSRPHIRRPARPRGVTL | < -0.25
75 | SRL | < -0.25
76 | FGRTELGCFLWTCLNFERFI | < -0.25
77 | RRVRLLAPSGMSRPHIHDIC | < -0.25
78 | DERGHPHSVGEVGLGP | < -0.25
79 | RLMG | < -0.25
80 | EQTSQSNSLSFWP | < -0.25
81 | ATFSTRKRPECFGQAEVQSR | < -0.25
82 | SAATPQIRISSLS | < -0.25
83 | RNLIVGYGT | < -0.25
84 | AALRYSSRNGHIGNVFDLG | < -0.25
85 | GRLMS | < -0.25
86 | VLVGIDVQDKQRVALAIGPP | -0.246
87 | CGCR | < -0.25
88 | WSMPAKFEERVREVQTAVVV | < -0.25
89 | QSRDLG | < -0.25
90 | RLLNTDGGSSFQGYYTPSKI | < -0.25
91 | SADPRRLNVLLTIAALVFAW | < -0.25
92 | HYLIPIREFNHD | < -0.25
93 | SISSFALQL | < -0.25
94 | VSGEIELTKAPESDMSHLAF | < -0.25
95 | CSQV | < -0.25
96 | FTGFKLSTNRQYLAIPSSGV | < -0.25

Row | Substance | growth estimate
97 | NDVWSKQSRRAQYIVYRSSI | < -0.25
98 | SVVAHTRDTEWNGLPAHVKQ | < -0.25
99 | TLGFCSELQRCRTLFVCLVP | < -0.25
100 | TSLEGSTGGRVIIGTK | < -0.25
101 | ARRDSREYQVQRHHSYYCK | < -0.25
102 | RTRTSRGRAWDLWPQCALGM | < -0.25
103 | AGDRICVCRIVTQKVHRHCR | < -0.25
104 | SNFFRLLGILIMPLNSSLIL | < -0.25
105 | SVNIVTRGASRQTFG | < -0.25
106 | LLTEPIV | -0.243
107 | CMGKLRIQWLGSRGPAGLRL | < -0.25
108 | SRRSFYGRADKVTISIPDMC | < -0.25
109 | EEEKGREGNIVSTRERKLLR | < -0.25
110 | NGEATTV | < -0.25
111 | RWSSLGCLPVNYGH | < -0.25
112 | TLWKPQ | < -0.25
113 | CDRVTRRG | < -0.25
114 | LYFRHSVIRKIFNNSRRIGH | < -0.25
115 | KKSGRLASAENGGLYIRNMP | -0.134
116 | SDTAALCRVWS | < -0.25
117 | AYIDRGQSNERSPDVRDRKT | < -0.25
118 | VSVMHWPDCGGGVCFDRDSG | -0.18
119 | RSFLDHRVHVGK | < -0.25
120 | ACCRM | < -0.25

Row | Substance | growth estimate
121 | WFLWGGGRRLGKG | < -0.25
122 | TCHV | < -0.25
123 | GVGVRVPALFLL | < -0.25
124 | GCLLDA | < -0.25
125 | LACR | < -0.25
126 | QILT | < -0.25
127 | GVRAKAF | < -0.25
128 | NSSRRLDRQKDSSFAAQDRG | < -0.25
129 | TRIDLAIVGKNHLSFSSPGQ | -0.241
130 | SPEHGISAVFLVTC | -0.243
131 | LIFPVLGIFSEHGSSLPIDC | < -0.25
132 | FIEELLCDISKSRKCSNSPT | < -0.25
133 | FATALYTAWSPGLGADLRSQ | < -0.25
134 | IALCQFHNGGTGLHGCTGLL | < -0.25
135 | RWPVLVRLNVYGQEAARILQ | < -0.25
136 | FFQMLGVRLCTPQLQVRRFL | -0.246
137 | LVMDKTYSPRECMGFSSGRW | < -0.25
138 | HGVRHWVKGCTQSGLFSLRR | < -0.25
139 | EREGLYRPDSHP | < -0.25
140 | QVYNSARLVGH | < -0.25
141 | ASITGSLFWGESFGA | < -0.25
142 | FSSLGRDGKRWRE | < -0.25
143 | MMF | < -0.25
144 | IESAPAMKGLCRRRAPQMGR | < -0.25

Row | Substance | growth estimate
145 | DQHMFS | < -0.25
146 | ALASACLVAQGGACRGGIDV | < -0.25
147 | GKEDCY | < -0.25
148 | NTGNFRLLRSSATLPSSSSS | < -0.25
149 | KVMKEGPCLYLGARALGALL | < -0.25
150 | TILWHPSTWHDRRAAVIASI | < -0.25
151 | IVEFI | < -0.25
152 | WRGVAIGCQFTSVGASGCGG | < -0.25
153 | TILTLKPARDAKTSSWRDSK | < -0.25
154 | GLCREKHATG | < -0.25
155 | GRHEERPFGAVDGPRHTPSA | < -0.25
156 | TDGQCDLCFARSEQLPD | < -0.25
157 | GLRLERLIPLAISGSTAVRA | -0.248
158 | SLR | < -0.25
159 | TSRPCTL | < -0.25
160 | QRGQLTATKEGNRVQPSGGL | < -0.25
161 | PTSQIVRKIAGRI | < -0.25
162 | SIPSGVTPE | < -0.25
163 | ERRQRCFSMFVGRKPERIRR | < -0.25
164 | EAGSSPQNSYCLSALSG | < -0.25
165 | LHERSSLVNADHMF | < -0.25
166 | GRFIIALSVMGEEASGVGHD | < -0.25
167 | WKLSVLCSVSITSL | < -0.25
168 | SSLPVLFTFRQSIILSLA | < -0.25

Row | Substance | growth estimate
169 | RCSPLLNERAEGGERSQSGT | < -0.25
170 | KCGASFETNRVGRHLAIFVR | < -0.25
171 | VRD | < -0.25
172 | LLSSGAGYQVIALLPITTC | < -0.25
173 | EAFVLVSDCVPLWKSLDELC | < -0.25
174 | MVSLNSVLCISGFRGGSRGH | < -0.25
175 | IGRTTQGDRLGWLMQAWLSL | < -0.25
176 | CLAVSLSGYSHELGSLLVLP | < -0.25
177 | LVKYS | < -0.25
178 | NRRRL | < -0.25
179 | GLRLIEHHHVLGQRAACP | < -0.25
180 | ILVKLMVVYSCNSNALERML | < -0.25
181 | GGLGNRYRPRPSPGPFPPIR | < -0.25
182 | LRQRLLYTKEAN | < -0.25
183 | VRGNPQTLAS | < -0.25
184 | ILVPFHRHAAAIPSAEHTMS | < -0.25
185 | TGTSAEVAVRWVASRHA | < -0.25
186 | CLWHITNFEQYNIFGLRLTR | < -0.25
187 | KATRVRVVSVSGCSTLALFI | < -0.25
188 | EVLNRWGGGTR | < -0.25
189 | LTEGRVKKDIFEYN | -0.246
